According to PMC13299607:
These are yes or no findings as the source states them, for the method shown. In cells and extracts the contact can be indirect. Some binding calls cover weakened binding; strength is not graded here.

Chains of the proteins cited; added tags and fusions are not shown.
UniProt Q96KS0: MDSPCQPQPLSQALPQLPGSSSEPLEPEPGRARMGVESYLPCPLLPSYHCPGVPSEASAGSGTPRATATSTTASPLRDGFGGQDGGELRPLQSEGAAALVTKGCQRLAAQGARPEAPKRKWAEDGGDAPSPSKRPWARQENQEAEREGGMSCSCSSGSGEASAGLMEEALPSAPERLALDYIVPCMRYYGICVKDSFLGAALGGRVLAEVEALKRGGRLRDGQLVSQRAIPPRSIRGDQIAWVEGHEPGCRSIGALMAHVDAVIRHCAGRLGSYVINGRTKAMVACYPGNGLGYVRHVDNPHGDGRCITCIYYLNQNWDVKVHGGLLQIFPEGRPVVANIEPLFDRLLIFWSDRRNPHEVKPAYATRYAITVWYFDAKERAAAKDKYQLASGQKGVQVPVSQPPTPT

Target: EGFP-PHD1 (UniProt Q96KS0)
Assay: co-IP; GFP-Trap magnetic agarose beads on lysate of asynchronous HeLa cells 48 hr after transfection with EGFP-PHD1; lysis in 50 mM Tris pH 7.5, 150 mM NaCl, 1% NP40, 0.5% deoxycholate, 0.1% SDS; 2 hr at 4°C; western blot

B1: endogenous RepoMan (CDCA2) (protein, UniProt Q69YH5 1-1023)
chain: MDANSKDKPPETKESAMNNAGNASFILGTGKIVTPQKHAELPPNPCTPDTFKSPLNFSTVTVEQLGITPESFVRNSAGKSSSYLKKCRRRSAVGARGSPETNHLIRFIARQQNIKNARKSPLAQDSPSQGSPALYRNVNTLRERISAFQSAFHSIKENEKMTGCLEFSEAGKESEMTDLTRKEGLSACQQSGFPAVLSSKRRRISYQRDSDENLTDAEGKVIGLQIFNIDTDRACAVETSVDLSEISSKLGSTQSGFLVEESLPLSELTETSNALKVADCVVGKGSSDAVSPDTFTAEVSSDAVPDVRSPATPACRRDLPTPKTFVLRSVLKKPSVKMCLESLQEHCNNLYDDDGTHPSLISNLPNCCKEKEAEDEENFEAPAFLNMRKRKRVTFGEDLSPEVFDESLPANTPLRKGGTPVCKKDFSGLSSLLLEQSPVPEPLPQPDFDDKGENLENIEPLQVSFAVLSSPNKSSISETLSGTDTFSSSNNHEKISSPKVGRITRTSNRRNQLVSVVEESVCNLLNTEVQPCKEKKINRRKSQETKCTKRALPKKSQVLKSCRKKKGKGKKSVQKSLYGERDIASKKPLLSPIPELPEVPEMTPSIPSIRRLGSGYFSSNGKLEEVKTPKNPVKRKDLLRHDPDLHMHQGYDKYDVSEFCSYIKSSSSLGNATSDEDPNTNIMNINENKNIPKAKNKSESENEPKAGTDSPVSCASVTEERVASDSPKPALTLQQGQEFSAGGQNAENLCQFFKISPDLNIKCERKDDFLGAAEGKLQCNRLMPNSQKDCHCLGDVLIENTKESKSQSEDLGRKPMESSSVVSCRDRKDRRRSMCYSDGRSLHLEKNGNHTPSSSVGSSVEISLENSELFKDLSDAIEQTFQRRNSETKVRRSTRLQKDLENEGLVWISLPLPSTSQKAKRRTICTFDSSGFESMSPIKETVSSRQKPQMAPPVSDPENSQGPAAGSSDEPGKRRKSFCISTLANTKATSQFKGYRRRSSLNGKGESSLTALERIEHNGERKQ
With B1 as the binder, how does the binding read?
Its binding is “binds”.
